Laboratory results: PubChem BioAssay AID1508588 (Peter MacCallum Cancer Centre, 2020)
This is an unselected part of about 18,000 deposited reagents. Of all reagents, 790 (4.4%) were called active. 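Calls rest on a combination of fold-change classes in drug and vehicle arms, not all shown here.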 Reagent sequences are not shown.

Test: 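Which gene losses make BRAF-mutant melanoma cells more responsive to vemurafenib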 (primary screen)
Cell system: human WM266.4 melanoma cells (BRAF V600 mutant)
Reagents: siRNA pool against human genes, 40 nM
Duration: 96 h from transfection to read-out
Conditions: vemurafenib 300 nM (about IC25), added 48 h after transfection, for 48 h; comparison arm got DMSO vehicle only
Measured: 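Ratios to non-targeting siRNA for cell gain, counted as DAPI nuclei after minus before drug and averaged over two replicates, and for absorbance-read medium lactate per cell; both binned into fold-change classes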
Reading the numbers: cell gain with vemurafenib: higher = more cell gain than with non-targeting siRNA; lactate per cell with vemurafenib: higher = more lactate made per cell
Active means: 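Enhancement is called by pairing each knock-down's vehicle-arm and drug-arm fold-change classes for viability or glycolysis; which class combinations qualify is not given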
Calls: active = enhances vemurafenib effect; inactive = no enhancement seen

| Target gene | cell gain with vemurafenib | lactate per cell with vemurafenib | Outcome |
| --- | --- | --- | --- |
| RAB7B | 0.38 | 1.42 | inactive |
| ACAD10 | 0.51 | 0.26 | inactive |
| LMAN1 | 0.56 | 1.5 | inactive |
| DFFA | 0.72 | 1.17 | inactive |
| MMP12 | 0.42 | 1.55 | inactive |
| HAUS8 | 0.88 | 1.07 | inactive |
| BDKRB1 | 1.07 | 0.84 | inactive |
| HCN3 | 1.16 | 0.55 | inactive |
| SLC52A2 | 1.04 | 0.93 | inactive |
| ZNF230 | 0.66 | 0.8 | inactive |
| SOX15 | 0.91 | 0.85 | inactive |
| GDF7 | 0.56 | 0.7 | inactive |
| FOXL2 | 1.06 | 0.82 | inactive |
| SWAP70 | 0.49 | 0.7 | inactive |
| EBAG9 | 0.38 | 1.08 | inactive |
| H4C16 | 0.12 | 0.51 | inactive |
| DDX50 | 1 | 0.91 | inactive |
| BBOX1 | 0.58 | 0.98 | inactive |
| TAS2R38 | 0.37 | 1.21 | inactive |
| APBA2 | 1.28 | 0.69 | inactive |
| EVA1C | 0.73 | 1.52 | inactive |
| FZD2 | 0.62 | 0.75 | inactive |
| THBS2 | 0.61 | 0.06 | inactive |
| SLC71A1 | 0.57 | 1.2 | inactive |
| MTHFD1L | 0.55 | 1.35 | inactive |
| CBX8 | 0.56 | 0.57 | inactive |
| FANK1 | 0.57 | 0.95 | inactive |
| SELENOW | 0.22 | 1.27 | inactive |
| DPH5 | 0.72 | 0.55 | inactive |
| PEDS1 | 0.09 | 0.87 | inactive |
| LSM1 | 0.97 | 0.44 | active |
| TCL1B | 0.61 | 1.04 | inactive |
| IL1A | 0.29 | 0.84 | inactive |
| GABRR2 | 0.53 | 0.64 | inactive |
| SAMD3 | 0.58 | 1.46 | inactive |
| NFAT5 | 0.2 | 1.16 | inactive |
| OR52B2 | 0.05 | 0.49 | inactive |
| PPAN | 0.83 | 1.08 | inactive |
| RABGAP1L | 0.17 | 0.68 | inactive |
| PIK3AP1 | 0.57 | 0.62 | inactive |
| AS3MT | 0.1 | 0.55 | active |
| C1QTNF12 | 0.84 | 1.06 | inactive |
| NEXMIF | 0.52 | 0.41 | inactive |
| LYG2 | 0.52 | 1.48 | inactive |
| ACVR1 | 0.75 | 0.94 | inactive |
| RBM22 | 0.36 | 0.49 | inactive |
| CD200R1L | 0.72 | 0.78 | inactive |
| SMYD2 | 0.68 | 0.97 | inactive |
| ZNF701 | 0.62 | 1.43 | inactive |
| SPATA31A7 | 0.7 | 0.32 | inactive |
| VSTM4 | 0.65 | 1.08 | inactive |
| SCN9A | 0.7 | 0.26 | inactive |

Records above marked active (2):
| Target gene | cell gain with vemurafenib | lactate per cell with vemurafenib | Outcome |
| --- | --- | --- | --- |
| LSM1 | 0.97 | 0.44 | active |
| AS3MT | 0.1 | 0.55 | active |

The results go on.
| Target gene | cell gain with vemurafenib | lactate per cell with vemurafenib | Outcome |
| --- | --- | --- | --- |
| RBBP7 | 0.7 | 0.62 | inactive |
| PGGHG | 0.69 | 0.86 | inactive |
| CHD6 | 0.96 | 1.09 | inactive |
| EPHX2 | 1.11 | 0.86 | inactive |
| IQCF2 | 0.63 | 1.08 | inactive |
| PLEK | 0.43 | 0.73 | inactive |
| ZNF675 | 0.96 | 0.41 | active |
| TEX13B | 0.53 | 0.29 | inactive |
| FAM107B | 0.51 | 0.8 | inactive |
| NABP1 | 0.17 | 2.06 | inactive |
| TLCD5 | 0.94 | 0.72 | inactive |
| ADGRG4 | 0.37 | 1.71 | inactive |
| TMEM270 | 0.17 | 0.98 | inactive |
| TGFB1I1 | 0.32 | 1.28 | inactive |
| TF | 0.23 | 0.82 | inactive |
| PTGS2 | 0.72 | 1.02 | inactive |
| ADORA2B | 0.59 | 0.68 | active |
| TOPBP1 | 0.08 | 2.79 | inactive |
| RAP2B | 0.66 | 1.29 | inactive |
| SNRNP27 | 0.56 | 0.74 | inactive |
| CCSER2 | 0.65 | 0.91 | inactive |
| PGAM5 | 0.6 | 0.99 | inactive |
| NDUFA1 | 0.57 | 1.75 | inactive |
| RBMXL2 | 1.36 | 0.96 | inactive |
| ZMYND12 | 0.2 | 0.78 | inactive |
| CNTN1 | 0.65 | 0.76 | inactive |
| PRR27 | 0.79 | 1 | inactive |
| OR2C1 | 0.49 | 0.76 | inactive |
| HEPACAM2 | 0.68 | 0.74 | inactive |
| DEXI | 0.94 | 0.46 | inactive |
| UTP11 | 0.21 | 1.55 | inactive |
| TSHZ2 | 0.52 | 1.76 | inactive |
